In article PMC11235169 (2024) one finds binding data, which are given here for 3 molecules.

The chains behind the UniProt entries cited, without tags or fusion partners. Where a name states a change or a piece, a line headed by the entry shows the natural chain unless it says otherwise.
UniProt Q9Z0U4: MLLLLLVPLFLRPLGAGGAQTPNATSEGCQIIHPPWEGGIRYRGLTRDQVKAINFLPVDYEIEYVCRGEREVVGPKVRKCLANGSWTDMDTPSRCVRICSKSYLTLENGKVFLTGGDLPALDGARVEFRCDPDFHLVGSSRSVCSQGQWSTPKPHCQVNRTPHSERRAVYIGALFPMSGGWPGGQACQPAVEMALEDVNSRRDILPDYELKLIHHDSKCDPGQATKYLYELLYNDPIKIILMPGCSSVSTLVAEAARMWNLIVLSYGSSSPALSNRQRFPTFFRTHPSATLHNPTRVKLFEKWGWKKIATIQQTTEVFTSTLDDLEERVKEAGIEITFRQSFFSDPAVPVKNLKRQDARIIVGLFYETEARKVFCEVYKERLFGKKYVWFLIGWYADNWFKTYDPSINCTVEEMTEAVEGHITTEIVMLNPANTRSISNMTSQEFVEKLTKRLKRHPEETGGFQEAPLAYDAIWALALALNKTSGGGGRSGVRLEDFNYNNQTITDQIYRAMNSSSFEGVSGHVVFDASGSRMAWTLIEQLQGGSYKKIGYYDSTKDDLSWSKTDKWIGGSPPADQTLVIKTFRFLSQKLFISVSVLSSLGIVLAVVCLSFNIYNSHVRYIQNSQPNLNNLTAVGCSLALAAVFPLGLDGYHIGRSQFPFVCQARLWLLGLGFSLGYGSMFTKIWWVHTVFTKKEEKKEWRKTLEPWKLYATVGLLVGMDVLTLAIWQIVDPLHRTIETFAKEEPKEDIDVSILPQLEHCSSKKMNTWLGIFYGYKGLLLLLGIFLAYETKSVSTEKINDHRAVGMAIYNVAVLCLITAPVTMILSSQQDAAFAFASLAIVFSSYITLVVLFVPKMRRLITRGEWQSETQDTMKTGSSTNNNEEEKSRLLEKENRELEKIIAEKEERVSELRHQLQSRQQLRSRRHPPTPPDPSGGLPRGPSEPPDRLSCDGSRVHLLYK

Changes are numbered by the printed parent chain. No constants are given. Whether binding was seen depends on the method and setting. In cells and extracts the contact can be indirect. Some results given as binding are weak or reduced against the parent protein; the word gives no strength. For some of these results: Sequences can lack the tags named with a protein.

For test [1], the target named is T1, AJAP1 (mouse, expressed in HEK293T cells) (mouse) (UniProt A2ALI5).
T1 sequence: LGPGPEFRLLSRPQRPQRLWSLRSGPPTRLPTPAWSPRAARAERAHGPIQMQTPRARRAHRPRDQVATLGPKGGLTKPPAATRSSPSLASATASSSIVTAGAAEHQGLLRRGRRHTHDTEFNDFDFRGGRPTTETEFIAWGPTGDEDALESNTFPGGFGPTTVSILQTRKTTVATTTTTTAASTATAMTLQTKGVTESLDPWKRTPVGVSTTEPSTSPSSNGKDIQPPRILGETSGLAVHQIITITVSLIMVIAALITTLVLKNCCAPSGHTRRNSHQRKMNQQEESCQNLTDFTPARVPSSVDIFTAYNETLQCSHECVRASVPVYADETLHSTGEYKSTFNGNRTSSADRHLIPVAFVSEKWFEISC
Kind of test: co-IP; transfected HEK293T cells expressing gephyrin with AJAP1 or AJAP1-Δ273–412; immunoprecipitation with sheep anti-AJAP1 antibody, gephyrin detected by immunoblot.

A further test concerns the target T2, AJAP1-Δ273–412 (mouse) (UniProt A2ALI5).
T2 sequence: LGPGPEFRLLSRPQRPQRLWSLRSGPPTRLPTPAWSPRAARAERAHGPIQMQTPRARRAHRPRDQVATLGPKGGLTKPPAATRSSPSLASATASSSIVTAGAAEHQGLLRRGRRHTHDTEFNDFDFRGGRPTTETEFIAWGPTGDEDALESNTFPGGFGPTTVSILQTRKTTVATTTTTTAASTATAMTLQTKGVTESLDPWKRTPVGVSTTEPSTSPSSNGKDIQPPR
The test is described as above.

Test [2] has as its target GC-GB1a expressed along with GB2 (GB1a/2 receptor) (UniProt Q9Z0U4). Kind of test: split reporter; trans-cellular fluorescence complementation of split superfolder GFP (GFP1–10 and GFP11) between two separately transfected pools of HEK293T cells, mixed and cocultured for 24 hours; GFP fluorescence at cell interfaces.

B1: mCherry-tagged full-length gephyrin (protein, UniProt Q03555 1-768)
chain: MATEGMILTNHDHQIRVGVLTVSDSCFRNLAEDRSGINLKDLVQDPSLLGGTISAYKIVPDEIEEIKETLIDWCDEKELNLILTTGGTGFAPRDVTPEKFPTFPFCGLQKGATKEVIEREAPGMALAMLMGSLNVTPLGMLSRPVCGIRGKTLIINLPGSKKGSQECFQFILPALPHAIDLLRDAIVKVKEVHDELEDLPSPPPPLSPPPTTSPHKQTEDKGVQCEEEEEEKKDSGVASTEDSSSSHITAAALAAKIPDSIISRGVQVLPRDTASLSTTPSESPRAQATSRLSTASCPTPKQIRRPDESKGVASRVGSLKVQSRCSSKENILRASHSAVDITKVARRHRMSPFPLTSMDKAFITVLEMTPVLGTEIINYRDGMGRVLAQDVYAKDNLPPFPASVKDGYAVRAADGPGDRFIIGESQAGEQPTQTVMPGQVMRVTTGAPIPCGADAVVQVEDTELIRESDDGTEELEVRILVQARPGQDIRPIGHDIKRGECVLAKGTHMGPSEIGLLATVGVTEVEVNKFPVVAVMSTGNELLNPEDDLLPGKIRDSNRSTLLATIQEHGYPTINLGIVGDNPDDLLNALNEGISRADVIITSGGVSMGEKDYLKQVLDIDLHAQIHFGRVFMKPGLPTTFATLDIDGVRKIIFALPGNPVSAVVTCNLFVVPALRKMQGILDPRPTIIKARLSCDVKLDPRPEYHRCILTWHHQEPLPWAQSTGNQMSSRLMSMRSANGLLMLPPKTEQYVELHKGEVVDVMVIGRL
B1: the binding entry in test [1] is given as “binds”; with AJAP1-Δ273–412 (mouse), “no binding”.

B2: GN-AJAP1-mCherry (protein, UniProt A2ALI5 44-412)
chain: T1 sequence
As to B2, the binding entry in test [2] was “binds”.

B3: GN-AJAP1-SDBM-mCherry (protein, UniProt A2ALI5 44-412)
chain: T1 sequence with I138A, W140A, G141A, P142A, T143A
Regarding B3, the binding result in test [2] is on record as “no binding”.
